From patent US20230096897A1, “Lymphocyte Population and Methods for Producing Same” (AVM Biotechnology, LLC, priority 2020, published 2023)
Where “and” joins values, the source holds several entries; their conditions need not be identical. Identical values can stand only once. Entries after “also recorded” stand apart in the source; their conditions may differ. At least one compound was matched to its structure with a doubt left.

Columns and labels:
A20 B cell lymphoma [1] = assay: A20 lymphoma study AVM_CANMOD_05, endpoint analysis subset; assay type: in vivo, mouse
A20 B cell lymphoma [2] = assay: A20 lymphoma study AVM_CANMOD_01 (repeat dosing); assay type: in vivo, mouse
AVM-NKT cells [3] = conditions: naïve mice
female NOD mice [4] = assay: Reversal of early onset and established diabetes in female NOD mice; assay type: in vivo, mouse; conditions: compared to anti-CD3 or ATG treated mice
Experimental: Female NOD mice are ordered at 9 weeks of age. Blood glucose levels are measured weekly starting at 10 weeks of age. Once a mouse has non-fasting blood glucose above 250 mg/dl, another measure is taken the following day.
For reversal of new-onset diabetes AVM0703 dosing is started one day after a mouse has had two consecutive days of elevated non-fasting blood glucose levels. Insulin pellets are implanted subcutaneously on the second day of elevated blood glucose levels. For reversal of established diabetes, two consecutive weeks of elevated blood glucose are measured, insulin pellets are implanted on day 8 after the first day of measured elevated blood glucose levels and AVM0703 is dosed on day 14 after the first day of measured elevated blood glucose levels.

female NOD mice [5] = assay: Prevention or delay of hyperglycemia in spontaneously diabetic female NOD mice; assay type: in vivo, mouse
Experimental: Female NOD mice were ordered at 9 weeks of age.
Body weights and blood glucose levels were monitored weekly. Body condition was monitored three times per week. Oral glucose tolerance was determined in all surviving mice who reached 30 weeks of age. Remaining mice were necropsied and autoreactive lymphocytes in the pancreas and adjacent lymph nodes were determined by flow cytometry. Pancreatitis was determined by H&E staining (8 out of 15 per group). Pancreatic Beta cell surface area was measured by staining for insulin. […] Pancreas and pancreas lymph nodes were examined for autoreactive, insulin-specific CD4+ T cells by using a magnetic enrichment method together with tetramer reagents.

[6] = system: CD56 very bright cell population; assay: Flow cytometry of a prostate cancer patient after AVM0703 infusion; assay type: in vivo, human; conditions: 6 mg/kg infusion
A20 B cell lymphoma [7] = assay: A20 lymphoma study AVM_CANMOD_05, lymphodepletion subset
A20 B cell lymphoma [8] = assay: AVM-NKT cells and necrosis in A20 tumor-bearing mice; assay type: in vivo, mouse
AVM-NKT cells [9] = assay: AVM-NKT induction in naïve Balb/c mice; assay type: in vivo, mouse; conditions: 48 hours after doses about 29 mg/kg and higher (given as DP)
A20 B cell lymphoma [10] = assay: A20 lymphoma study AVM_CANMOD_03 (dose response); assay type: in vivo, mouse; conditions: 7, 18, 25 mg/kg DP vs placebo
Experimental: In a second study (“AVM_CANMOD_03”), BALB/c mice (n=5 per group) were dosed with increasing concentrations of AVM0703 HED DP (7, 18, and 26 mg/kg) on Days 9, 16, 24, and 31 after tumor inoculation. Treatment started when the tumors were approximately […], as opposed to well-established tumors of 150 mm^3 as in study AVM_CANMOD_01.
Based on evidence of pseudogrowth in tumors from AVM0703-treated mice in study AVM_CANMOD_01, tumors (n=2 per group) were sent to HistoTox Labs for slicing and immunohistochemistry. Hematoxylin and eosin stains identified several regions of necrosis and the slides were scored from 0 to 5 depending on severity.

[11] = system: CCRF-CEM human T cell lymphoma; assay: CCRF-CEM human T cell lymphoma xenograft in NCr nude mice (AVM_CANMOD_06)
[12] = system: peripheral blood mononuclear cells or single cell splenocytes; assay: In vitro apoptosis of mouse blood mononuclear cells and splenocytes; assay type: cell-based; conditions: concentrations equivalent to in vivo peak blood concentrations; out to 72 hours
Experimental: Mononuclear cells from peripheral blood of naïve male C57Bl/6 mice or single cell splenocytes were incubated with equivalent concentrations of AVM0703 as the peak blood concentrations of acute high dose AVM0703 achieve in vivo.
Blood and spleens were taken from naïve C57B16 mice. Mononuclear cells were isolated from blood and single cell splenocytes were isolated from the spleen. […] Therefore, the complete in vivo T and B lymphocyte ablation appears to be mediated by the AVM-NKT, and not a receptor based mechanism such as activation of a glucocorticoid receptor.

[13] = system: CD3high, CD45dim, CD49b+ cells; assay: Venetoclax pre-treatment before high dose DSP in female NOD mice; assay type: in vivo, mouse; conditions: 12.5 up to 50 mg/kg before HED 30 mg/kg DSP
Experimental: Female NOD mice of 10 weeks of age are treated with 12.5 mg/kg up to 50 mg/kg venetoclax 6-18 hours before oral gavage of a HED 30 mg/kg DSP dose. […] CD3high, CD45dim, CD49b+ cells are reduced from—70 cells/microliter with DSP alone to—40 cells/microliter with 12.5 mg/kg venetoclax pretreatment, to—20 cells/microliter with 25 mg/kg venetoclax pretreatment, to—15 cells/microliter with 50 mg/kg venetoclax pretreatment. Venetoclax is a Bcl-2 inhibitor.

[14] = system: CD3 very high T cells, CD11b very high dendritic cells; assay: Mobilisation of AVM-T cells and AVM-dendritic cells; assay type: in vivo, mouse; conditions: high dose dexamethasone
[15] = system: peripheral blood T and B lymphocytes; conditions: single oral 0.24 mg/kg dose; cited from earlier work
AVM-NKT cells [16] = assay: Flow cytometry of osteoarthritis patients treated with dexamethasone; assay type: in vivo, human; conditions: 3-6 mg/kg; 48 hours post treatment; one of four patients
[17] = system: peripheral blood T and B cells; conditions: cited from earlier work
[18] = system: peripheral blood lymphocytes
[19] = 18 mg/kg HED DP, 6, 24, 48 hours, vs placebo

SMILES: C[C@@H]1C[C@H]2[C@@H]3CCC4=CC(=O)C=C[C@]4(C)[C@@]3(F)[C@@H](O)C[C@]2(C)[C@@]1(O)C(=O)CO [AVM0703, dexamethasone]
- EVOS Brightfield Percent Necrotic/Resorbed (A20 B cell lymphoma [1]; 18 mg/kg, Mouse 11): resorbed
- HistoTox Labs tumor label scoring (CD3, CD49b, NKp46, Ly6G, Sca1, collagen) (A20 B cell lymphoma [1]; endpoint analysis subset): reduced CD3 and CD49b label; also recorded: increased organization of NKp46 cells; also recorded: reduced Ly6G, Sca1, and collagen label
- Tumor histology (brightfield microscopy) (A20 B cell lymphoma [2]; 18 mg/kg repeat dosing): extensive areas of necrosis and largely necrotic and 1-10 totally necrotic was dosed as above; and Mouse 1-5 totally necrotic was dosed as shown here
- Tumor growth (group average tumor volumes) (A20 B cell lymphoma [2]; 18.06 mg/kg HED DP oral, Days 7-43 post inoculation, n=5, vs placebo): delayed; also recorded: delays A20 B-Lymphoma Growth
- Spleen and thymus weight (A20 B cell lymphoma [2]; Days 1 and 3 after the 7th dose): appear reduced; also recorded: reduced compared to placebo
- Presence of AVM-NKT cells, 48 hrs spleen (AVM-NKT cells [3]): positive
- Reversal of early onset and established diabetes (female NOD mice [4]): equivalently reverse
- Oral glucose tolerance test (OGTT) (female NOD mice [5]; treated mice without hyperglycemia at end of study): normal
- Novel CD56 very bright cell population in blood ([6]; 3 hours after): no longer observed
- Novel CD45dim CD56 very bright cell population in blood ([6]; one hour after): observed; also recorded: evident
- B cell lymphocytes (A20 B cell lymphoma [7]; 18 mg/kg HED DP): almost completely ablated
- ALC (A20 B cell lymphoma [7]; 18, 22, 25 mg/kg HED DP, 48 hours): inversely related to AVM0703 dose
- Tumor resorption (MetaMorph Image Analysis) vs placebo (A20 B cell lymphoma [7]; 18 and 25 mg/kg): greater tumor resorption
- Tumor CD3 & CD49b label (A20 B cell lymphoma [7]; 48 hours after dosing): reduced CD3 & CD49b label
- Tumor Ly6G expression (A20 B cell lymphoma [7]; 48 hours after dosing): increased Ly6G expression
- Tumor necrosis (hematoxylin and eosin), HistoTox Labs scoring (A20 B cell lymphoma [7]; 48 hours after dosing): increased tumor necrosis
- Mice scoring 5 on necrosis (range 0 to 5) (A20 B cell lymphoma [7]; HistoTox Labs scoring): 2 of the 9
- Presence of AVM-NKT cells, 48 hrs blood (A20 B cell lymphoma [8]; A20 model): negative
- Induction of AVM-NKT cells (AVM-NKT cells [9]): Induced in Bone Marrow and Fat Tissue
- Tumor CD3 expression (immunohistochemistry) (A20 B cell lymphoma [10]): Saw a necrosis DRC and CD3 labeling inversely related to DRC
- Tumor growth ([11]; 18 mg/kg HED DP, doses on days 7-63 after tumor implantation): No tumor growth whatsoever
- Reaching tumour volume end point of 1500 mm^3 ([11]; 18 mg/kg weekly, placebo mice reach it on day 50-55): did not reach tumour volume end point
- Tumour growth after re-challenge with CCRF-CEM on day 118 ([11]; one treated mouse, out to day 164): no tumour growth
- Time to endpoint ([11]; oral 18 mg/kg weekly from Day 7, vs placebo): delay in time to endpoint
- Apoptosis [12]: no apoptosis was observed

SMILES: CC1(C)CCC(CN2CCN(c3ccc(C(=O)NS(=O)(=O)c4ccc(NCC5CCOCC5)c([N+](=O)[O-])c4)c(Oc4cnc5[nH]ccc5c4)c3)CC2)=C(c2ccc(Cl)cc2)C1 [Venetoclax, venetoclax, reference compound]
- Diabetes onset (female NOD mice [5]; venetoclax 25 mg/kg alone or followed by dexamethasone HED 30 mg/kg 18-24 hours later): accelerated diabetes onset
- Effect of pretreatment on number of CD3high, CD45dim, CD49b+ cells mobilized into the blood [13]: dose-dependently reduces

SMILES: C[C@@H]1C[C@H]2[C@@H]3CCC4=CC(=O)C=C[C@]4(C)[C@@]3(F)[C@@H](O)C[C@]2(C)[C@@]1(O)C(=O)CO [dexamethasone]
- CD3 very high T cells (AVM-T cells) [14]: mobilises
- CD11b very high dendritic cells (AVM-dendritic cells) [14]: mobilises
- Conventional CD11b+ dendritic cells in the blood [14]: increases the concentration; also recorded: increases the number
- Beginning of recovery [15]: 12 h
- Return to normal levels [15]: ≤ 24 h
- Suppression of peripheral blood T and B lymphocytes [15]: 80%
- Tumor necrosis (A20 B cell lymphoma [8]; HED 18 mg/kg DP, 48 hours, vs placebo): increased necrosis
- Cells corresponding to AVM-NKT cells (CD45 dim, CD56 very bright) in blood (AVM-NKT cells [16]): emerged
- Acute oral dose necessary to reduce peripheral blood T and B cells ([17]; 24-48 hours after administration): ≥ 3 mg/kg
- Return to baseline levels after dosing ([17]; acute oral doses of 3 mg/kg or greater): 5 to 14 days
- Absolute lymphocyte numbers (ALC minus NK and NKT cells) ([18]; 18 mg/kg HED DP, single oral dose, 6 h to 21 days, vs placebo): significantly reduced
- Monocyte numbers [18, 19]: significantly reduced
- Neutrophil numbers [18, 19]: significantly reduced
- Total NKT cell numbers ([18]; 18 mg/kg HED DP, 6 and 24 hours, vs placebo): reduced
- Lymphoablation ([18]; 18 mg/kg HED DP, 6 and 48 hours after administration): almost complete lymphoablation
- B lymphocyte numbers ([18]; 18 mg/kg HED DP, 6 h to 21 days, vs placebo): significantly reduced
- T and B lymphocytes ([18]; high-dose dexamethasone, naïve mice): selectively ablates
